Results deposited as PubChem BioAssay AID1259405 (NCATS, 2018)
Shown is an unselected part of about 50,000 reagents tested. Over the whole deposit, about 4,000 (8%) are marked active. 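Mouse siRNA library applied to hamster cells; one well for each siRNA.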 A number with no mark means an inactive call. The numbers tell different reagents against one gene apart.

Assay: 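Knock-downs that lift recombinant protein yield in hamster ovary cells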 (primary screen)
Cell system: Chinese hamster CHO-K1 ovary cells with stable secreted eGFP expression
Reagent: single siRNA against mouse genes, 0.8 pmol siRNA per well (2 µl of 400 nM stock)
Timing: 3 days
Measured: 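Per-well intracellular GFP measured by laser scanning cytometry, plus viability from ATP luminescence, each relative to plate median of non-targeting control wells, in %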
Scale: GFP, % of control: higher = more GFP per well, higher productivity; viability (ATP), % of control: higher = more viable cells (more ATP)
Rule for the call: 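a knock-down is called active if GFP reaches 120% or more of non-targeting control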

gene	siRNA no.	GFP, % of control	viability (ATP), % of control
Ddb2 (damage specific DNA binding protein 2)	1	78.7	108
Ddb2 (damage specific DNA binding protein 2)	2	48	45.2
Ddb2 (damage specific DNA binding protein 2)	3	105	72.8
Klf8 (Kruppel-like transcription factor 8)	1	73.7	88.4
Klf8 (Kruppel-like transcription factor 8)	2	74.1	93.9
Klf8 (Kruppel-like transcription factor 8)	3	67.7	97.7
Sucla2 (succinate-Coenzyme A ligase, ADP-forming, beta subunit)	1	67.7	74.1
Sucla2 (succinate-Coenzyme A ligase, ADP-forming, beta subunit)	2	63.8	83.8
Dpp10 (dipeptidylpeptidase 10)	1	131 (active)	70.2
Dpp10 (dipeptidylpeptidase 10)	2	91.2	74.8
Dpp10 (dipeptidylpeptidase 10)	3	70.2	72.2
Hmgn1 (high mobility group nucleosomal binding domain 1)	1	91.6	73.5
Hmgn1 (high mobility group nucleosomal binding domain 1)	2	75.7	82.5
Hmgn1 (high mobility group nucleosomal binding domain 1)	3	41.7	58.5
Gid8 (GID complex subunit 8)	1	92.6	63
Gid8 (GID complex subunit 8)	2	69.5	47.2
Gid8 (GID complex subunit 8)	3	34.9	59.9
Ankrd46 (ankyrin repeat domain 46)	1	71	67.4
Ankrd46 (ankyrin repeat domain 46)	2	61.6	89.8
Ankrd46 (ankyrin repeat domain 46)	3	107	80.3
Gsdmc (gasdermin C)	1	63.8	51.7
Gsdmc (gasdermin C)	2	74.8	74.7
Gsdmc (gasdermin C)	3	63.8	40.9
Msi2 (musashi RNA-binding protein 2)	1	58.7	71
Msi2 (musashi RNA-binding protein 2)	2	104	58.4
Msi2 (musashi RNA-binding protein 2)	3	83.9	98.7
Il6ra (interleukin 6 receptor, alpha)	1	101	91.7
Il6ra (interleukin 6 receptor, alpha)	2	90	64.9
Il6ra (interleukin 6 receptor, alpha)	3	55.9	51.7
Aqp2 (aquaporin 2)	1	84.5	54.5
Aqp2 (aquaporin 2)	2	53.2	55.1
Aqp2 (aquaporin 2)	3	93.1	60.5
Slc28a1	1	92.8	90.3
Slc28a1	2	44.5	42.2
Slc28a1	3	97.8	71.5
Nipsnap3b (nipsnap homolog 3B)	1	76.1	75.4
Nipsnap3b (nipsnap homolog 3B)	2	100	75.9
Nipsnap3b (nipsnap homolog 3B)	3	109	78
Slc25a44	1	53.5	77.7
Slc25a44	2	89.1	75.6
Slc25a44	3	94.3	111
Cdca3 (cell division cycle associated 3)	1	68.6	81
Cdca3 (cell division cycle associated 3)	2	81.8	100
Cdca3 (cell division cycle associated 3)	3	77	65.7
Prl7a1 (prolactin family 7, subfamily a, member 1)	1	54.6	70.9
Prl7a1 (prolactin family 7, subfamily a, member 1)	2	54.7	101
Prl7a1 (prolactin family 7, subfamily a, member 1)	3	39.4	42.3
Cphx1 (cytoplasmic polyadenylated homeobox 1)	1	73.5	102
Cphx1 (cytoplasmic polyadenylated homeobox 1)	2	64.2	49.8
Cphx1 (cytoplasmic polyadenylated homeobox 1)	3	128 (active)	102
Gas1 (growth arrest specific 1)	1	52.8	52.5
Gas1 (growth arrest specific 1)	2	71.6	76.7
Gas1 (growth arrest specific 1)	3	85.4	87.7
Plekha6 (pleckstrin homology domain containing A6)	1	75.2	78.8
Plekha6 (pleckstrin homology domain containing A6)	2	91.4	40.4
Plekha6 (pleckstrin homology domain containing A6)	3	55.4	49.7
Eif4b (eukaryotic translation initiation factor 4B)	1	65.8	95
Eif4b (eukaryotic translation initiation factor 4B)	2	65.7	43.4
Eif4b (eukaryotic translation initiation factor 4B)	3	126 (active)	90.9
Best2 (bestrophin 2)	1	44.5	59.9
Best2 (bestrophin 2)	2	135 (active)	125
Best2 (bestrophin 2)	3	148 (active)	74.5
Mrpl34 (mitochondrial ribosomal protein L34)	1	79.5	53.7
Mrpl34 (mitochondrial ribosomal protein L34)	2	154 (active)	74.9
Mrpl34 (mitochondrial ribosomal protein L34)	3	54.2	73.6
Mapk11 (mitogen-activated protein kinase 11)	1	83.8	86.7
Anapc2 (anaphase promoting complex subunit 2)	1	41.3	49.2
Anapc2 (anaphase promoting complex subunit 2)	2	84.7	101
Anapc2 (anaphase promoting complex subunit 2)	3	93.4	138
Mnat1 (menage a trois 1)	1	37.8	45.2
Mnat1 (menage a trois 1)	2	96	81.1
Marco (macrophage receptor with collagenous structure)	1	124 (active)	114
Marco (macrophage receptor with collagenous structure)	2	81.9	69.6
Marco (macrophage receptor with collagenous structure)	3	60.6	67.6
Or7a40 (olfactory receptor family 7 subfamily A member 40)	1	66.6	63.3
Or7a40 (olfactory receptor family 7 subfamily A member 40)	2	54.1	80.4
Or7a40 (olfactory receptor family 7 subfamily A member 40)	3	77.4	96.5
Zfp277 (zinc finger protein 277)	1	107	62.9
Zfp277 (zinc finger protein 277)	2	69.7	60.6
Zfp277 (zinc finger protein 277)	3	78.5	93.7
Cela1 (chymotrypsin-like elastase family, member 1)	1	84.4	56
Cela1 (chymotrypsin-like elastase family, member 1)	2	93.4	71.4
Cela1 (chymotrypsin-like elastase family, member 1)	3	61.8	41.5
Hjv (hemojuvelin BMP co-receptor)	1	87.5	83.4
Hjv (hemojuvelin BMP co-receptor)	2	45	59.4
Hjv (hemojuvelin BMP co-receptor)	3	95.2	92.5
Nipa2	1	63.1	81.7
Nipa2	2	80.6	85.6
Nipa2	3	94.4	95.2
Myb (Myb proto-oncogene, transcription factor)	1	65.3	60.4
Myb (Myb proto-oncogene, transcription factor)	2	53.4	49.7
Myb (Myb proto-oncogene, transcription factor)	3	84.8	97
Unc13d (unc-13 homolog D)	1	116	52.1
Unc13d (unc-13 homolog D)	2	74.9	39.1
Unc13d (unc-13 homolog D)	3	102	93
Romo1 (reactive oxygen species modulator 1)	1	155 (active)	102
Romo1 (reactive oxygen species modulator 1)	2	69.3	65.6
Romo1 (reactive oxygen species modulator 1)	3	65.9	98.1
Hnrnpab (heterogeneous nuclear ribonucleoprotein A/B)	1	74.1	56.1
Hnrnpab (heterogeneous nuclear ribonucleoprotein A/B)	2	47.2	86.2
Hnrnpab (heterogeneous nuclear ribonucleoprotein A/B)	3	115	94.6
Zfx (zinc finger protein X-linked)	1	71.4	84
Zfx (zinc finger protein X-linked)	2	85.6	75.6
Dnmt3l (DNA methyltransferase 3-like)	1	119	103
Dnmt3l (DNA methyltransferase 3-like)	2	60.9	63.6
Dnmt3l (DNA methyltransferase 3-like)	3	72.8	58
Zcchc3 (zinc finger, CCHC domain containing 3)	1	83.7	69.4
Zcchc3 (zinc finger, CCHC domain containing 3)	2	67.4	72.4
Zcchc3 (zinc finger, CCHC domain containing 3)	3	84.8	80
